This passage reports log2 fold change results from the supplement of paper PMC10849652.

By UniProt entry, the sequences of proteins in these tests, tags left out. Where a name states a change or a piece, a line headed by the entry shows the natural chain unless it says otherwise.
UniProt H7BZJ3: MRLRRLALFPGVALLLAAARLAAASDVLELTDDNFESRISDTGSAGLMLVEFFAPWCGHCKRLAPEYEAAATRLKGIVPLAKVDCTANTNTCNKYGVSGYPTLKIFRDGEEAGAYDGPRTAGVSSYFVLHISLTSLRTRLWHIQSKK
UniProt Q9UKL6: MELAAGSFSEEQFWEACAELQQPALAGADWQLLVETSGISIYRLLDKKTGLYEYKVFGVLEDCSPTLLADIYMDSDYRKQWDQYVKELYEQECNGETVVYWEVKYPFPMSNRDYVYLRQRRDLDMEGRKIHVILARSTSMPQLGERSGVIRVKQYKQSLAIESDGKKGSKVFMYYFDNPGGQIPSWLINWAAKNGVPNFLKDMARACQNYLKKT
UniProt Q9NQP4, whole entry, looked up: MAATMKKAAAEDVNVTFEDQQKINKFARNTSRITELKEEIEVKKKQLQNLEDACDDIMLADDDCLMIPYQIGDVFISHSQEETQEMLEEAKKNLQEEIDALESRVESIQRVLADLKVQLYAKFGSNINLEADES
UniProt P13667: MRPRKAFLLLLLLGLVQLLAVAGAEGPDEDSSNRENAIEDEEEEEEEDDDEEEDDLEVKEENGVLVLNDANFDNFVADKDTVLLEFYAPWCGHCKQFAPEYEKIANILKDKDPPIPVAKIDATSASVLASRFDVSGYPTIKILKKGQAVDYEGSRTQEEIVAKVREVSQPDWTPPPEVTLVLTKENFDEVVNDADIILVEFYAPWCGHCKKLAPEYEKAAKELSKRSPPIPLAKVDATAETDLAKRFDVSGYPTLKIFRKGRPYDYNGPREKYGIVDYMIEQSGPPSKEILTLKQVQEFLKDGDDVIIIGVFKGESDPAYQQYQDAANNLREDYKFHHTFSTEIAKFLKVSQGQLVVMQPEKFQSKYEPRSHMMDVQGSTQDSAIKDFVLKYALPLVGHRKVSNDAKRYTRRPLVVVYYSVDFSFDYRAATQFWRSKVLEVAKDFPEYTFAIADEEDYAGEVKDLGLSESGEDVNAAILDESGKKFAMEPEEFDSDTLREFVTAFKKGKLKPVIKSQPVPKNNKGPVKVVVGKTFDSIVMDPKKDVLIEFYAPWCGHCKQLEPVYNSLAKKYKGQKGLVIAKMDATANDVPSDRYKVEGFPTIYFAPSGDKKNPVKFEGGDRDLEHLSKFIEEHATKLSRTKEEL
UniProt Q6ZW49, whole entry, looked up: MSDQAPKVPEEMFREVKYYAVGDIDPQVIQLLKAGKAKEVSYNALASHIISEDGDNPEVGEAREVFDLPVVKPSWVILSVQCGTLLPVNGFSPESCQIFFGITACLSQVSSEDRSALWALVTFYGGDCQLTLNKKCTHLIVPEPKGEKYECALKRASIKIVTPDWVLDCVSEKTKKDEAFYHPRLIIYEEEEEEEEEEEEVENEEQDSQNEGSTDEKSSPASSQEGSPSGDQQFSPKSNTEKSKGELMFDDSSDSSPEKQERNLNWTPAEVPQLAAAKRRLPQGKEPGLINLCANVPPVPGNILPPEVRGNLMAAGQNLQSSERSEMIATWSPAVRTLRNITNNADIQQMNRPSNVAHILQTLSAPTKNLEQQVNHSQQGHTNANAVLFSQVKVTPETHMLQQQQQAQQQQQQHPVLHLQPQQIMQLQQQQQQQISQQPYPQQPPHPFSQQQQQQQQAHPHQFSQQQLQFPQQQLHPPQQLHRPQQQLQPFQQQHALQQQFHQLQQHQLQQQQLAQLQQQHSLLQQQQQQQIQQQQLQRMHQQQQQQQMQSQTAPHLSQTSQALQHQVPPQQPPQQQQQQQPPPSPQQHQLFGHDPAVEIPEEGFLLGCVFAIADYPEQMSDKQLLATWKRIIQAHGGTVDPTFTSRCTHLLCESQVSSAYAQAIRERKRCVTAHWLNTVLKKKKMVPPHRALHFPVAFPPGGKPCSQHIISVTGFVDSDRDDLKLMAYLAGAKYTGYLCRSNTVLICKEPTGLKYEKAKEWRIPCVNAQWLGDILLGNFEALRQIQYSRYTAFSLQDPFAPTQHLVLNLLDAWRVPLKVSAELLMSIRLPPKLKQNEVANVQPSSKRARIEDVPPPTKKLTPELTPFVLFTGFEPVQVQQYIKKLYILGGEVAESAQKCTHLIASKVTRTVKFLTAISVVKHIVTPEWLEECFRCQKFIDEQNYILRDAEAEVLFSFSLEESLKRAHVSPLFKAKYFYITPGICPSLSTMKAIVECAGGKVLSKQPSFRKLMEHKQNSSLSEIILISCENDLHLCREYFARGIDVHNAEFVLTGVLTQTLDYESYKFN
UniProt Q9NUG6, whole entry, looked up: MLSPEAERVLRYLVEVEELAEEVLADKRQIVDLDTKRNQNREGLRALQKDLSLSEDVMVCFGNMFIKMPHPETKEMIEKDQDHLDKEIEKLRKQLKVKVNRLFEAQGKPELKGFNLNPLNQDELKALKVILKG
UniProt P07737, whole entry, looked up: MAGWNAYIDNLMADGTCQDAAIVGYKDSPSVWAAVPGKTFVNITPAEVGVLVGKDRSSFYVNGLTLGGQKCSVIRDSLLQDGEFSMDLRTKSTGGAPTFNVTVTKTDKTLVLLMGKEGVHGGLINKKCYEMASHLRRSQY
UniProt O14737: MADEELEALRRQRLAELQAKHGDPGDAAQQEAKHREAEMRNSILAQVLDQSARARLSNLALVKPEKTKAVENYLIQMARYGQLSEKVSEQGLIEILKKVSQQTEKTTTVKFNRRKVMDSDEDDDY
UniProt Q9Y5B6: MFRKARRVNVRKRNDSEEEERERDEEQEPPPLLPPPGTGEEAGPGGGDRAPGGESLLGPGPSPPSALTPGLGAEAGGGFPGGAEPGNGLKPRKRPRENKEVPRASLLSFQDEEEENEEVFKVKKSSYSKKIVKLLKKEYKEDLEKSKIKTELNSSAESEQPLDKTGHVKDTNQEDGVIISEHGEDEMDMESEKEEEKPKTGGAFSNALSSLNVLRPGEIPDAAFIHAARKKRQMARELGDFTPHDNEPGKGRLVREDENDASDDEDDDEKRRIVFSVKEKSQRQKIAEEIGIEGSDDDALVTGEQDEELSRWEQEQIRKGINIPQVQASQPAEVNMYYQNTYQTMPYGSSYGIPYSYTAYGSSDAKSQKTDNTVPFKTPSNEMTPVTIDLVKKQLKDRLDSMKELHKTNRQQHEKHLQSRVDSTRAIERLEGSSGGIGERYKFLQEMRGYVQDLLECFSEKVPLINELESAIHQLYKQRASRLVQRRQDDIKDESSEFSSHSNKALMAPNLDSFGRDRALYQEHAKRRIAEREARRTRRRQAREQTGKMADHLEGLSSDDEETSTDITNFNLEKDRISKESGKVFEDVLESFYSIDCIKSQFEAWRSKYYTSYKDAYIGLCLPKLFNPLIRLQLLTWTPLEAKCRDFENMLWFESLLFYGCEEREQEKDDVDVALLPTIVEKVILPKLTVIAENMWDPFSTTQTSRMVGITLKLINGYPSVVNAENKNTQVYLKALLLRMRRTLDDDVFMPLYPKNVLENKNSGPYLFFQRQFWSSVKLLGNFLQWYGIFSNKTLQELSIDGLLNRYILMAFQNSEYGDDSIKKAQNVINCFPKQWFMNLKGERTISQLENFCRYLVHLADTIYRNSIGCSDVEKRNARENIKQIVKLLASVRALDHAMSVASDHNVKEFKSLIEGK
UniProt Q460N5, whole entry, looked up: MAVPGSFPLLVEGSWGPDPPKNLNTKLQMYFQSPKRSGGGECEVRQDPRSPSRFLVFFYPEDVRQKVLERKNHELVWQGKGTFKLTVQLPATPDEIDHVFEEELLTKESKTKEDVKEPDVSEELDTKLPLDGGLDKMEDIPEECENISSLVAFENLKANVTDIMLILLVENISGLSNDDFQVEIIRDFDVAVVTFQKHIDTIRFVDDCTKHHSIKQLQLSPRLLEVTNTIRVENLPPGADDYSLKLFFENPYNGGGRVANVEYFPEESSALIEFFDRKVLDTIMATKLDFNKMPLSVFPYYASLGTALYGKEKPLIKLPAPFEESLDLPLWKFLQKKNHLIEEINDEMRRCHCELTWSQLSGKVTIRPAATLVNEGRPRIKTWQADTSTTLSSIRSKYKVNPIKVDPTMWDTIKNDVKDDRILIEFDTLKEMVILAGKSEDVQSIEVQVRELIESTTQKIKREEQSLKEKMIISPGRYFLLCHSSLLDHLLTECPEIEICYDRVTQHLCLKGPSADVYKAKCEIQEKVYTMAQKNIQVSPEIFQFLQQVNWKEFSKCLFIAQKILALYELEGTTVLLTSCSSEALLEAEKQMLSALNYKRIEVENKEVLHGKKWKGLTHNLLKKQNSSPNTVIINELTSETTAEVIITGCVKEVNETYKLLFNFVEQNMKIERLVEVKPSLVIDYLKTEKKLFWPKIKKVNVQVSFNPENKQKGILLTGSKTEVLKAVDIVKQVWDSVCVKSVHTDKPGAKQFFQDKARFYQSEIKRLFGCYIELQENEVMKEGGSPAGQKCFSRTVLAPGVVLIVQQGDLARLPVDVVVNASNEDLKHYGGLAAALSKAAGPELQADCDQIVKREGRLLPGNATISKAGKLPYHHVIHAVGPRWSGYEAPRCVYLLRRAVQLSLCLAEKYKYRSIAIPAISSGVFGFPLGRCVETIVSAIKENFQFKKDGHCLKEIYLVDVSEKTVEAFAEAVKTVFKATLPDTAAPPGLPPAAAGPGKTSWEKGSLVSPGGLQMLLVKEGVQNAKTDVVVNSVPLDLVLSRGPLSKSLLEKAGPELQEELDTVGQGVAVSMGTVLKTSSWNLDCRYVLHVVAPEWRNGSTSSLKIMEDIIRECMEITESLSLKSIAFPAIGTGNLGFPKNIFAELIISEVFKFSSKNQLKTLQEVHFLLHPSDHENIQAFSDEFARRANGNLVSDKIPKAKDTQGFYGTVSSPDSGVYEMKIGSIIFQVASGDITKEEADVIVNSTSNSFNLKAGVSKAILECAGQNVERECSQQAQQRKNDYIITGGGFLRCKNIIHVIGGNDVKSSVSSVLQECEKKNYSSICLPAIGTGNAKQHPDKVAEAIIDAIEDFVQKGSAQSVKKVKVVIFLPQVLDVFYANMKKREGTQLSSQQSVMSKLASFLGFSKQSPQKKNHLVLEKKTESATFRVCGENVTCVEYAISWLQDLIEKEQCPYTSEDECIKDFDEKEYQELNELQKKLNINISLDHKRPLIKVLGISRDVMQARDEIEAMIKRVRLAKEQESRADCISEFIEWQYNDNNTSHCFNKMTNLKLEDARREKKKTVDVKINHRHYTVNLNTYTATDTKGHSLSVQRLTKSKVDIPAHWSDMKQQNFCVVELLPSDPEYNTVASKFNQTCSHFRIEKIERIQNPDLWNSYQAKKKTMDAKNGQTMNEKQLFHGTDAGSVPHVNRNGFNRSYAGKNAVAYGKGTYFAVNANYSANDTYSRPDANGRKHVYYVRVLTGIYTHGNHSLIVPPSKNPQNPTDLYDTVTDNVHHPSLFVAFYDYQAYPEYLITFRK
UniProt P61457: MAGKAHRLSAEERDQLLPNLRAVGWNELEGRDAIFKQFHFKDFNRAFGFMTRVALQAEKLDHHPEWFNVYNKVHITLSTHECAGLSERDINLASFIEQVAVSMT
UniProt Q99471, whole entry, looked up: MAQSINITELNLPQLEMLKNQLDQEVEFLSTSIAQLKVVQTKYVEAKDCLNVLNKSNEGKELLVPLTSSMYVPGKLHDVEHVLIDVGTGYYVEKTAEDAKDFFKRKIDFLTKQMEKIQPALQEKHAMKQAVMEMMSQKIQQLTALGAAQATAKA
UniProt Q53EL6: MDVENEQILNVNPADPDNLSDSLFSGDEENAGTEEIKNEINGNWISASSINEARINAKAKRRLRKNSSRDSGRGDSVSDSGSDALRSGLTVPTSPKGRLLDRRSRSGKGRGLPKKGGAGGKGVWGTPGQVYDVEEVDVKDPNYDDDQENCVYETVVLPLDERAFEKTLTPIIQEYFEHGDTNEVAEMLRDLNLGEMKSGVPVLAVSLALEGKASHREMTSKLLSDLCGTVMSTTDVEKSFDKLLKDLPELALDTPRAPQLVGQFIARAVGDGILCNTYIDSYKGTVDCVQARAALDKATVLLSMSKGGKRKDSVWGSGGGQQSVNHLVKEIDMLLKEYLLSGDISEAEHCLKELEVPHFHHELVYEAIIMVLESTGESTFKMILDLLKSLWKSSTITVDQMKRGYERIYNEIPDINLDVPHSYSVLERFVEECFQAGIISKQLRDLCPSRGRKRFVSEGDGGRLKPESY
UniProt Q9BRX2, whole entry, looked up: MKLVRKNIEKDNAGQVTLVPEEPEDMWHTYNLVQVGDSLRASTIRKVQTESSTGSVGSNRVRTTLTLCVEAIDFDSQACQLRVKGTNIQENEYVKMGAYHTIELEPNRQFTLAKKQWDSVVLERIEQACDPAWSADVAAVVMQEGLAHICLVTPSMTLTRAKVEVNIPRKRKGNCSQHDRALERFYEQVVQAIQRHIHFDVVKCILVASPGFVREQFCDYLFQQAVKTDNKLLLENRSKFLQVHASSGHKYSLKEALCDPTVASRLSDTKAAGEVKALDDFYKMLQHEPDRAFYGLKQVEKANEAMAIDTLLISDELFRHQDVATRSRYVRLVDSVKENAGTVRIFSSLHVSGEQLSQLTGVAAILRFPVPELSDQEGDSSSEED
UniProt Q15121, whole entry, looked up: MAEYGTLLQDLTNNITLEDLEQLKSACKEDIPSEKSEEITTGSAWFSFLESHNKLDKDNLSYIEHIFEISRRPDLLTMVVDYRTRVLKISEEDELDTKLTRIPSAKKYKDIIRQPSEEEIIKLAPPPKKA

The list shows a part of the results.

Compound in this experiment: Cc1cc(Nc2cc(CN3CCOCC3)c3nc(C)c(Cc4ccc(Cl)cc4F)n3n2)n[nH]1 [gandotinib]
Put plainly: log2 fold change, soluble protein after heating vs DMSO (PISA); higher = thermal stabilisation; K562 lysate, 10 uM; active = over 0.2 and 3.5 SD of the protein, either way, in both replicates (recomputed). Summed up:
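Soluble protein was defined as the supernatant remaining after 21,000xg for 90 min, following pooling of heated aliquots and adjustment to 0.5% NP-40 at 4°C. Before that, crude K562 extract at 1 mg/mL protein in PBS pH 7.4 with 1 mM MgCl2 was treated with 10 μM compound for 30 min and heated for 3 min across 48°C-58°C. Quantification used TMTpro 16plex LC-MS/MS with channel sums equalised, and values are log-two fold changes in thermal stability relative to solvent controls from duplicates.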
Consider PDCL3 (UniProt Q9H2J4), for which the log2 fold change was inactive: 0.028. As for PATL1 (UniProt Q86TB9), the log2 fold change is inactive: -0.043. The figure for PDIA3 (UniProt H7BZJ3) is inactive: -0.01.

On to PARN (UniProt O95453), for which the log2 fold change was inactive: -0.018. The result for PEX5 isoform 4 (UniProt P50542) reads inactive: -0.059. For the target PFKM isoform 3 (UniProt P08237), the log2 fold change is inactive: 0.006. Take PCTP (UniProt Q9UKL6): the log2 fold change was inactive: 0.052. On to PCBP3 (UniProt P57721), for which the log2 fold change is inactive: 0.028. As to PDCD6IP (UniProt Q8WUM4), the log2 fold change was inactive: -0.012. Take PDCL (UniProt Q13371): the log2 fold change is inactive: -0.001. In the case of PFDN4 (UniProt Q9NQP4), the log2 fold change was inactive: 0.019.

Turning to PCBP2 (UniProt H3BRU6), the log2 fold change was inactive: 0.01.

Consider PDCD6IP isoform 2 (UniProt Q8WUM4), for which the log2 fold change is inactive: -0.09. Take PDIA4 (UniProt P13667): the log2 fold change is inactive: -0.026. On to PDE12 (UniProt Q6L8Q7), for which the log2 fold change was inactive: 0.017. Regarding PCYT2 isoform 3 (UniProt Q99447), the log2 fold change is inactive: 0.143. Turning to PDE2A (UniProt O00408), the log2 fold change is inactive: 0.138. With PCBP2 isoform 8 (UniProt Q15366), the log2 fold change was inactive: 0.029.

In the case of PFDN6 (UniProt O15212), the log2 fold change was inactive: -0.059. In the case of PFDN2 (UniProt Q9UHV9), the log2 fold change was inactive: -0.1. With PDCD10 (UniProt Q9BUL8), the log2 fold change is inactive: 0.112. The result for PAXIP1 (UniProt Q6ZW49) reads inactive: -0.075; that for PDRG1 (UniProt Q9NUG6), inactive: 0.044. The figure for PFN1 (UniProt P07737) is inactive: 0.007. Turning to PDCD5 (UniProt O14737), the log2 fold change is inactive: 0.078. The figure for PAXBP1 (UniProt Q9Y5B6) is inactive: -0.029; for PARP14 (UniProt Q460N5) it is inactive: -0.123; for PCBD1 (UniProt P61457) it is inactive: 0.01. For PFDN5 (UniProt Q99471), the log2 fold change was inactive: -0.1.

For the target PCBP2 isoform 3 (UniProt Q15366), the log2 fold change was inactive: -0.023.

As for PDCD4 (UniProt Q53EL6), the log2 fold change is inactive: 0.009.

For the target PELO (UniProt Q9BRX2), the log2 fold change is inactive: -0.202. Turning to PEA15 isoform 2 (UniProt Q15121), the log2 fold change was inactive: -0.031.
